Values from PubChem BioAssay AID1159578 (Peter MacCallum Cancer Centre, 2015).
Purpose: 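Genome-wide hunt for genes controlling movement of lymphatic endothelial cells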 (primary screen). Cells: human lymphatic endothelial cells. Knock-down reagent: siRNA pool against human genes, 40 nM. Timing: 48 h after transfection. Measured: 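High-content imaging of dye-stained cells in a scratch assay measures filled wound area and nuclei per well; duplicate means given as ratio to mock and robust z-score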. Scale: migration robust z-score: higher = faster migration into the scratch; migration relative to mock: higher = more scratch area covered than mock; nuclei per well: higher = more cells in the well. Call rule: 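Pools averaging fewer than 3300 nuclei are never called; remaining pools count as changed when migration robust z lies outside -2 to 2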. Calls: active = migration changed; inactive = no migration change, or too few cells.
The whole screen tested about 18,000 reagents; below is an unselected part. About 1,030 of them (5.7%) were called active. 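Inactive calls also include pools with fewer than 3300 nuclei, whose migration was not assessed.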 Raw values vary from plate to plate and are shown uncorrected.

The first 2 records, to show the layout:
| gene knocked down | migration robust z-score | migration class with cell-count check | migration relative to mock | nuclei per well, duplicate mean | Outcome |
| --- | --- | --- | --- | --- | --- |
| MAPKAPK5 | 0.44 | migration z between -2 and 2; enough cells | 0.89 | 5452 | inactive |
| NOP2 | 0.68 | migration z between -2 and 2; enough cells | 0.94 | 5290 | inactive |

The list itself, from the first entry:
| gene knocked down | migration robust z-score | migration class with cell-count check | migration relative to mock | nuclei per well, duplicate mean | Outcome |
| --- | --- | --- | --- | --- | --- |
| MAPKAPK5 | 0.44 | migration z between -2 and 2; enough cells | 0.89 | 5452 | inactive |
| NOP2 | 0.68 | migration z between -2 and 2; enough cells | 0.94 | 5290 | inactive |
| DKKL1 | 0.62 | migration z between -2 and 2; enough cells | 1.04 | 5789 | inactive |
| SRRM2 | 0.22 | migration z between -2 and 2; enough cells | 0.94 | 5643 | inactive |
| RFX3 | 0.03 | migration z between -2 and 2; enough cells | 0.81 | 4044 | inactive |
| TIMMDC1 | 0.68 | migration z between -2 and 2; enough cells | 1.06 | 4798 | inactive |
| COLGALT2 | -0.23 | migration z between -2 and 2; enough cells | 0.83 | 5347 | inactive |
| OR4K2 | 0.15 | under 3300 nuclei; migration not judged | 0.92 | 2914 | inactive |
| ADH6 | -0.86 | migration z between -2 and 2; enough cells | 0.64 | 5728 | inactive |
| CPEB2 | 0.94 | migration z between -2 and 2; enough cells | 1.13 | 5640 | inactive |
| FLRT1 | -0.32 | migration z between -2 and 2; enough cells | 0.8 | 5036 | inactive |
| EVPL | 0.89 | migration z between -2 and 2; enough cells | 1.12 | 6184 | inactive |
| SASH3 | -0.57 | migration z between -2 and 2; enough cells | 0.74 | 5476 | inactive |
| GRIN3A | -1.35 | migration z between -2 and 2; enough cells | 0.55 | 5548 | inactive |
| ZFP30 | 0.23 | migration z between -2 and 2; enough cells | 0.94 | 6142 | inactive |
| GSG1 | -0.46 | migration z between -2 and 2; enough cells | 0.76 | 4765 | inactive |
| NUP210 | 0.74 | migration z between -2 and 2; enough cells | 1.07 | 5798 | inactive |
| CCDC32 | 0.19 | migration z between -2 and 2; enough cells | 0.94 | 5746 | inactive |
| MBNL3 | -0.63 | migration z between -2 and 2; enough cells | 0.72 | 6832 | inactive |
| LAMP1 | -0.74 | migration z between -2 and 2; enough cells | 0.69 | 5431 | inactive |
| HGS | 0.34 | migration z between -2 and 2; enough cells | 0.98 | 5800 | inactive |
| NFKB2 | 0.11 | migration z between -2 and 2; enough cells | 0.82 | 5455 | inactive |
| RUFY2 | 1.93 | migration z between -2 and 2; enough cells | 1.38 | 6434 | inactive |
| ARHGAP26 | 0.82 | migration z between -2 and 2; enough cells | 1.1 | 5129 | inactive |
| EHD2 | -0.22 | migration z between -2 and 2; enough cells | 0.82 | 6264 | inactive |
| ANKS4B | 0.9 | migration z between -2 and 2; enough cells | 1.12 | 7174 | inactive |
| DHRS13 | -1.04 | migration z between -2 and 2; enough cells | 0.6 | 5134 | inactive |
| SLA | -0.19 | migration z between -2 and 2; enough cells | 0.84 | 6296 | inactive |
| CDKN3 | 0.86 | migration z between -2 and 2; enough cells | 0.97 | 5230 | inactive |
| SLIT1 | 0.17 | migration z between -2 and 2; enough cells | 0.92 | 5143 | inactive |
| DEPTOR | 0.2 | migration z between -2 and 2; enough cells | 0.93 | 5719 | inactive |
| EGLN1 | -0.18 | migration z between -2 and 2; enough cells | 0.77 | 6273 | inactive |
| TAF1 | -0.68 | migration z between -2 and 2; enough cells | 0.68 | 6116 | inactive |
| MFAP1 | -0.22 | migration z between -2 and 2; enough cells | 0.83 | 5915 | inactive |
| MARK1 | -2.49 | migration z below -2; enough cells | 0.32 | 4574 | active |
| PCNX4 | -0.82 | migration z between -2 and 2; enough cells | 0.67 | 6878 | inactive |
| SLC7A13 | 1.92 | migration z between -2 and 2; enough cells | 1.17 | 6164 | inactive |
| FBXL17 | -0.21 | migration z between -2 and 2; enough cells | 0.76 | 6130 | inactive |
| HMGB4 | -0.44 | migration z between -2 and 2; enough cells | 0.77 | 7112 | inactive |
| HYAL4 | -5.57 | under 3300 nuclei; migration not judged | -0.27 | 2168 | inactive |
| AHSA1 | -0.42 | migration z between -2 and 2; enough cells | 0.73 | 4863 | inactive |
| SMIM8 | -0.54 | migration z between -2 and 2; enough cells | 0.75 | 4904 | inactive |
| DUSP29 | 1.19 | migration z between -2 and 2; enough cells | 1.19 | 5381 | inactive |
| ZP3 | -0.76 | migration z between -2 and 2; enough cells | 0.69 | 6228 | inactive |
| PKD2 | -0.8 | migration z between -2 and 2; enough cells | 0.65 | 3674 | inactive |
| SLC2A11 | -0.04 | migration z between -2 and 2; enough cells | 0.88 | 5094 | inactive |
| BMP2 | -1.25 | migration z between -2 and 2; enough cells | 0.56 | 4374 | inactive |
| AIRE | 0.5 | migration z between -2 and 2; enough cells | 0.9 | 6230 | inactive |
| NRG1 | -0.57 | migration z between -2 and 2; enough cells | 0.7 | 3400 | inactive |
| SLC39A1 | -0.94 | migration z between -2 and 2; enough cells | 0.62 | 5977 | inactive |
| NFKBIA | -0.86 | migration z between -2 and 2; enough cells | 0.66 | 5290 | inactive |
| RPS29 | -4.4 | under 3300 nuclei; migration not judged | -0.26 | 2115 | inactive |
| MUC15 | 2.17 | migration z above 2; enough cells | 1.45 | 5734 | active |
| NPC1L1 | -0.63 | migration z between -2 and 2; enough cells | 0.73 | 5005 | inactive |
| OTC | 1.45 | migration z between -2 and 2; enough cells | 1.08 | 6130 | inactive |
| MAPK8IP1 | -0.12 | migration z between -2 and 2; enough cells | 0.86 | 5951 | inactive |
| BSN | 0.58 | migration z between -2 and 2; enough cells | 1.04 | 6160 | inactive |
| POLR2F | -1.55 | migration z between -2 and 2; enough cells | 0.5 | 3836 | inactive |
| PLAGL1 | -3.87 | under 3300 nuclei; migration not judged | 0.06 | 3295 | inactive |
| USP14 | 0.8 | migration z between -2 and 2; enough cells | 0.96 | 5482 | inactive |
| GSTP1 | -0.95 | migration z between -2 and 2; enough cells | 0.64 | 7354 | inactive |
| KRT81 | -5 | under 3300 nuclei; migration not judged | -0.38 | 1490 | inactive |
| SLC22A17 | -0.13 | migration z between -2 and 2; enough cells | 0.78 | 6989 | inactive |
| PPP1CA | -2.44 | migration z below -2; enough cells | 0.34 | 4046 | active |
| IKBKB | -1.66 | migration z between -2 and 2; enough cells | 0.48 | 4478 | inactive |
| MDM2 | -0.44 | migration z between -2 and 2; enough cells | 0.72 | 4978 | inactive |
| PRAMEF4 | 0.98 | migration z between -2 and 2; enough cells | 1.14 | 4763 | inactive |
| HDLBP | -1.17 | migration z between -2 and 2; enough cells | 0.58 | 4720 | inactive |
| ALDH8A1 | 0.5 | migration z between -2 and 2; enough cells | 1.02 | 6170 | inactive |
| CASD1 | -2.1 | migration z below -2; enough cells | 0.4 | 4981 | active |
| OLFML2A | -1.19 | migration z between -2 and 2; enough cells | 0.57 | 5240 | inactive |
| HSD17B7 | 1.3 | migration z between -2 and 2; enough cells | 1.06 | 6556 | inactive |
| GALNS | -0.7 | migration z between -2 and 2; enough cells | 0.67 | 5576 | inactive |
